Data from PMC6781437.
No constants are given. Whether binding was seen depends on the method and setting. Binding seen in cells or lysates may run through a third protein. Some entries that bind do so weakly or less than the wild type. For some of these results: Sequences can lack the tags named with a protein.

Chains of the proteins cited; added tags and fusions are not shown. Residues count along the entry.
UniProt P54763, residues 19-986: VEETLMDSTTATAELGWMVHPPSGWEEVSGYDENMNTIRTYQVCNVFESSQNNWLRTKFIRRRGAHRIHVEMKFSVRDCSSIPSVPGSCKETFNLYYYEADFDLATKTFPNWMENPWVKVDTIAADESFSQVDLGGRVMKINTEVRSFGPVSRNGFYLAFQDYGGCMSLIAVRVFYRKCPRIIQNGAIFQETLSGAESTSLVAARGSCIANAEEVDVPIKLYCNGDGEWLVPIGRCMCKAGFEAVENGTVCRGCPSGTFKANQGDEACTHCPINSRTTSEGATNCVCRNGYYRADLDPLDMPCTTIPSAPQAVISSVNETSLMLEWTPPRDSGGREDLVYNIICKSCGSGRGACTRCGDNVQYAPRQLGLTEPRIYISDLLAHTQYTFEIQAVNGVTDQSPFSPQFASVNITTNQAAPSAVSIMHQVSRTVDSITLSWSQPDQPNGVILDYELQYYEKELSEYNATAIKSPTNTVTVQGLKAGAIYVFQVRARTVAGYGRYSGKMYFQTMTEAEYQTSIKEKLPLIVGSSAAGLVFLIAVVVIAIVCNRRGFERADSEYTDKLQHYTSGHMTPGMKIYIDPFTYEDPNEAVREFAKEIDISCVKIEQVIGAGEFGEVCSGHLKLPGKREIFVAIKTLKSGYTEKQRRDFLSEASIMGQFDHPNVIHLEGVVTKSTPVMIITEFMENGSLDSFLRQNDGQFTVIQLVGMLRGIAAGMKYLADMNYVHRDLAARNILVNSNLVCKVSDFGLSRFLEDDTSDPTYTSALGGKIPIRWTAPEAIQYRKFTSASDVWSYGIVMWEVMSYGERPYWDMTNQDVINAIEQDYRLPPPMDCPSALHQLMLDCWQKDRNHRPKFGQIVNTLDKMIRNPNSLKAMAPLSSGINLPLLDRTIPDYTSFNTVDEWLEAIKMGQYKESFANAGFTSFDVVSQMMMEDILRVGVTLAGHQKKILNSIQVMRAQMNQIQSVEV
UniProt P29323, residues 19-1055: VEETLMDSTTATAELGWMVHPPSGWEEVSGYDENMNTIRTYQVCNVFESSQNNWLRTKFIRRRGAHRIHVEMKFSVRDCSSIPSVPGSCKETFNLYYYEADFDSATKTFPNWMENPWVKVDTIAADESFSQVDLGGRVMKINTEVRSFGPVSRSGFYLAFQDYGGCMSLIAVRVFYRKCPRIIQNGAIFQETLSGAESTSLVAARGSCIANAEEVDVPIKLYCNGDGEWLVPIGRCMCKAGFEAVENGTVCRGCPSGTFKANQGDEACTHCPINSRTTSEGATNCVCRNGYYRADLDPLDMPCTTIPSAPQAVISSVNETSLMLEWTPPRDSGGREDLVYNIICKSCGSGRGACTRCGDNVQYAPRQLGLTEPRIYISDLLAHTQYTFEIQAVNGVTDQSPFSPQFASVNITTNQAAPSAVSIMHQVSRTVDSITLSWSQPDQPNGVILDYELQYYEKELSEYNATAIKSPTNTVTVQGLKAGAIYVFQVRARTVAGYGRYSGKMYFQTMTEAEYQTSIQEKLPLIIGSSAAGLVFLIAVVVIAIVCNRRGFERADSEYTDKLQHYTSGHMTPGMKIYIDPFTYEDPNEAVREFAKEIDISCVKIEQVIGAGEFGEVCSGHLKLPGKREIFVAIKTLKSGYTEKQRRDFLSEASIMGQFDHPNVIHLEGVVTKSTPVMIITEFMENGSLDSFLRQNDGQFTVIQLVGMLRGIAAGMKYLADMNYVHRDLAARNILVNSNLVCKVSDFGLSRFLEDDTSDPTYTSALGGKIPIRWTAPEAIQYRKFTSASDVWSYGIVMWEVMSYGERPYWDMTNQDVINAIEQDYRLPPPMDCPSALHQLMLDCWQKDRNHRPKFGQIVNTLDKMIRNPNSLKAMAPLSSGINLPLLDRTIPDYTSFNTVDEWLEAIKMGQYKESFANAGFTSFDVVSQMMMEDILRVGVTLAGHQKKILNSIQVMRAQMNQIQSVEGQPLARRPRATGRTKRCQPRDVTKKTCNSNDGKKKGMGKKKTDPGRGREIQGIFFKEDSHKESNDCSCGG

Assays:
[1] = target: full-length Flag-EphB2 (murine) (mouse) (UniProt P54763); assay: co-IP; Flag-EphB2 precipitated with anti-FLAG M2-agarose from lysates of transfected HeLa cells (25 mM Hepes pH 7.4, 150 mM NaCl, 1% Triton X-100; at least 3 h at 4°C), Western blot; cells untreated, treated with preclustered Fc or ephrinB1-Fc, cocultured with ephrinB1ΔC donor HeLa cells, co-expressing GFP-Tiam2ΔN or GFP, or treated with DMSO or Dyngo-4a
[2] = target: endogenous EphB2 (human (endogenous in U251)) (UniProt P29323); assay: co-IP; U251 cells cocultured with control GFP+ or ephrinB1ΔC-GFP+ HeLa cells for 30 min; lysates immunoprecipitated with anti-EphB2 antibodies; endogenous proteins

B1: GFP-Gulp1 fusion protein (full-length mouse Gulp1) (protein, UniProt Q8K2A1 1-304)
chain: MNRAFSRKKDKTWMHTPEALSKHYIPYNAKFLGSTEVEQPKGTEVVRDAVRKLKFARHIKKSEGQKIPKVELQISIYGVKILEPKTKEVQHNCQLHRISFCADDKTDKRIFTFICKDSESNKHLCFVFDSEKCAEEITLTIGQAFDLAYRKFLESGGKDVETRKQIAGMQKRIQDLETENMELKNKVQDLESRLRTTQVSTSPAHGVTVMSPSTDIFDMIPFSPISHQSPTSARNGTQLPPIPSRSAETKRDLFGAEPFDPFNCGSGDFPPDIQSKLDEMQEGFKMGLTLEGTVFCLDPLDSRC
- binding [1]: binds weakly

B2: endogenous Gulp1 (protein, UniProt Q9UBP9 1-304)
chain: MNRAFSRKKDKTWMHTPEALSKHFIPYNAKFLGSTEVEQPKGTEVVRDAVRKLKFARHIKKSEGQKIPKVELQISIYGVKILEPKTKEVQHNCQLHRISFCADDKTDKRIFTFICKDSESNKHLCYVFDSEKCAEEITLTIGQAFDLAYRKFLESGGKDVETRKQIAGLQKRIQDLETENMELKNKVQDLENQLRITQVSAPPAGSMTPKSPSTDIFDMIPFSPISHQSSMPTRNGTQPPPVPSRSTEIKRDLFGAEPFDPFNCGAADFPPDIQSKLDEMQEGFKMGLTLEGTVFCLDPLDSRC
- binding [1]: binds
- binding [2]: binds

B3: full-length myc-Gulp1 (protein, UniProt Q8K2A1 1-304)
chain: B1 chain
- binding [1]: binds
